The shares of active, inactive and inconclusive entries below differ from those in the screen. Potencies of inconclusive entries are doubtful fits and often do not repeat. Calls of active or inactive are those of the source. How the source made its calls: active means hit-call score of the fitted dose curve at least 0.9, where 1 is the maximum; inconclusive means response in the unintended direction; inactive means score below 0.9.
These molecules were tested against human Peroxisome Proliferator-activated Receptor alpha (PPARa), PPARA (gene 5465) (UniProt Q07869) (assay: ATG_PPARa_TRANS: Attagene TRANS-FACTORIAL HepG2 Assay for human Peroxisome Proliferator-activated Receptor alpha (PPARa) (AID 2283001);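 on AC50: potency for gain of reporter signal over DMSO so agonist or activator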).
Procedure: ATG_TRANS is a cell-based, multiplexed-readout assay that uses HepG2, a human liver cell line, with measurements taken at 24 hours after chemical dosing in a 24-well plate.ATG_PPARa_TRANS is one of 30 assay component(s) measured or calculated from the ATG_TRANS assay. It is designed to make measurements of mRNA induction, a form of inducible reporter, as detected with fluorescence intensity signals by Reverse transcription polymerase chain reaction (RT-PCR) and Capillary electrophoresis technology.Data from the assay component ATG_PPARa_TRANS was analyzed into 1 assay endpoint. This assay endpoint, ATG_PPARa_TRANS, was analyzed in the positive analysis fitting direction relative to DMSO as the negative control and baseline of activity. Using a type of inducible reporter, measures of mRNA for gain-of-signal activity can be used to understand the reporter gene at the transcription factor-level as they relate to the gene PPARA. Furthermore, this assay endpoint can be referred to as a primary readout, because this assay has produced multiple assay endpoints where this one serves a reporter gene function. To generalize the intended target to other relatable targets, this assay endpoint is annotated to the nuclear receptor intended target family, where the subfamily is non-steroidal.
Human liver HepG2 cells are transiently transfected with multiple reporter transcription units (MRTUs) in 6-well plates using FuGene 6 reagent (Roche; 3 ml FuGene/1 mg DNA). The MRTU constructs are regulated by a cis-regulating element (promoter). […] A major difference between the CIS and TRANS system is that in CIS activities of endogenous TFs are measured, whereas the TRANS assay evaluates changes in activities of exogenous, chimeric NR-Gal4 proteins. […] At the end of 24 hour incubation, total RNA was isolated using TriZol reagent (Invitrogen). The isolated RNA is then reverse-transcribed using oligo(dT) primer and Mo-MLV reverse transcriptase (Invitrogen) with DNAse I (Ambion) treatment for 30 min. The one-tenth of the produced cDNA was amplified by PCR using Taq DNA polymerase (Invitrogen) and two reporter sequence-specific primers. The PCR products were fluorescently labeled by primer extension with 6-arboxyfluorescein (6-FAM) 5'-labeled reporter sequence-specific primer (2 min at 95 C, 20 s at 68 C and 10 min at 72 C) and these products were digested with 5U of HpaI (New England Biolabs) for 2h at 37 C. The fragments were purified using Qiaquick PCR columns (Qiagen), analyzed on an ABI 3130xL genetic analyzer (Applied Biosystems) with peak positions identified by using a set of X-rhodamine (ROX)-labeled MapMarker1000 molecular weight standards (BioVentures). The raw capillary electrophoresis data was processed using Attagraph software (Attagene).

Chains of the proteins cited; added tags and fusions are not shown. Lines headed by an entry give the natural chain unless they say otherwise; changes in a name come on top.
UniProt Q07869: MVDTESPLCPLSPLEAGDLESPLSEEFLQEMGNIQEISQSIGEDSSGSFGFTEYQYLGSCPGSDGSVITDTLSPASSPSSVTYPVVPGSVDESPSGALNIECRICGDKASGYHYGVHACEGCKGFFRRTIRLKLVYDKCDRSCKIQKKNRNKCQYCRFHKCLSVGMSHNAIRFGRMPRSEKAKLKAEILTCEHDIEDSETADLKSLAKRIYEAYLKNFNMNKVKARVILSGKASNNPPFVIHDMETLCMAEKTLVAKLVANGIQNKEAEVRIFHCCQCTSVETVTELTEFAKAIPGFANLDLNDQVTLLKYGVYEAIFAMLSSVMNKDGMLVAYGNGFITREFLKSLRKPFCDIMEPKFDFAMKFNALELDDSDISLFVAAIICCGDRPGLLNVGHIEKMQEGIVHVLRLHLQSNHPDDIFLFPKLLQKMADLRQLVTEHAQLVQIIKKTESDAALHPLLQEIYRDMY

| Structure (SMILES) | AC50 | outcome |
| --- | --- | --- |
| CCCCCCCCCCCCCCCC[N+](C)(C)Cc1ccccc1 | active: 45 µM | – |
| C=C[Si](C)(C)O[Si](C)(C)C=C | inconclusive: 100 µM | – |
| CCOC(N)=O | inconclusive: 183 µM | – |
| COC(=O)c1c(Cl)c(Cl)c(C(=O)OC)c(Cl)c1Cl | – | inactive |
| OCCCC(F)(F)C(F)(F)C(F)(F)C(F)(F)C(F)(F)C(F)(F)C(F)(F)F | – | inactive |
| CCc1ccc2c(c1)C(=O)c1ccccc1C2=O | – | inactive |
| COC(=O)c1c(C)cc(O)c(C)c1O | – | inactive |
| O=C1OC(=O)c2ccc3c4c(ccc1c24)C(=O)OC3=O | inconclusive: 100 µM | – |
| C/C=C/C(=O)C1=C(C)CCCC1(C)C | inconclusive: 16.1 µM | – |
| NC(=O)NN=Cc1ccc([N+](=O)[O-])o1 | inconclusive: 0.332 µM | – |
| CCCCCCCCCCCCCCCCOS(=O)(=O)O | active: 9.15 µM | – |
| OCC(F)(F)C(F)(F)C(F)(F)C(F)(F)C(F)(F)C(F)(F)CO | – | inactive |
| CCc1cc(Cc2cc(CC)c(N)c(CC)c2)cc(CC)c1N | inconclusive: 1.22 µM | – |
| OCCO | inconclusive: 1.92 µM | – |
| S=C(NC1CCCCC1)NC1CCCCC1 | – | inactive |
| CCc1c(C(=O)NN2CCCCC2)nn(-c2ccc(Cl)cc2Cl)c1-c1ccc(Br)cc1 | inconclusive: 0.545 µM | – |
| CCCCCCCCCCCCS | – | inactive |

| Structure (SMILES) | AC50 | outcome |
| --- | --- | --- |
| CC(C)(C)c1ccc(-c2ccc(C(C)(C)C)cc2)cc1 | inconclusive: 35.3 µM | – |
| CC(C)=NNC(N)=S | inconclusive: 100 µM | – |
| CCCCCCCCCC=O | active: 29.6 µM | – |
| O=C(O)C=C(C(F)(F)F)C(F)(F)F | inconclusive: 150 µM | inactive |
| C=C(C)CCO | inconclusive: 0.781 µM | – |
| CC[C@H](NC(=O)c1cc(F)ccc1NS(=O)(=O)c1cccc2cccnc12)c1ccccc1 | inconclusive: 100 µM | – |
| CC(=O)CC(N)=O | – | inactive |
| O=c1[nH]cnc2c1ncn2[C@H]1CC[C@@H](CO)O1 | inconclusive: 0.264 µM | – |
| OCCN1CN(CCO)CN(CCO)C1 | – | inactive |
| CCCCCCCC[N+](C)(CCCCCCCC)CCCCCCCC | – | inactive |
| CCOC(=O)CC(=O)C(F)(F)C(F)(F)F | inconclusive: 150 µM | – |
| CC/C=C\C/C=C\C/C=C\CCCCCCCC(=O)O | active: 42.3 µM | – |
| C=C(C)[C@@H]1CCC2=CCC[C@@H](C)[C@]2(C)C1 | inconclusive: 51.2 µM | – |
| CCCCCCC=O | – | inactive |
| Nc1ccc(C(=O)O)cc1 | inconclusive: 0.075 µM | – |

Laid out differently: results already given
CCCCCCCCCCCCS
  outcome: inactive
CC(=O)CC(N)=O
  outcome: inactive

From PubChem BioAssay (EPA / NIEHS)
